# From PubChem BioAssay AID1347423 (Functional Genomics Laboratory (NCATS/FGL), 2020)
# The whole screen tested about 52,000 sequences, of which about 210 (0.4%) were called active.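 How the source made its calls: active means gene whose silencing raises cell survival under the drug, median off-target-corrected z-score across its silencing RNAs 2 or more; inactive means the rest.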 The list shows a part of the results.
# Assay: Resistance to Poly (ADP-Ribose) Polymerase inhibitor: Gene Identification via Genome-wide siRNA Screen
# Details: mouse BRCA2 R2336H ES cells, olaparib, CellTiter-Glo viability; stronger effect = higher value
# In short: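 Genome-wide siRNA screen (3 siRNAs/gene, 20 nM) in mouse ES cells carrying hypomorphic BRCA2 R2336H; olaparib 500 nM added 48 h post-transfection, CellTiter-Glo viability 72 h later. Normalized to plate-median negative control; MAD z-scores, gene median, seed-adjusted.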
row,Sequence,z-score
1,GGAUCAUGUCAUCACAAAATT against Fzd3,inactive: 0.968
2,GGAAAACAAGCCUAAGUCATT against Zfyve19,inactive: -1.58
3,CCUAUUAAUAUGGAAAGUGTT against Arcn1,inactive: -2.41
4,GCUCGAGAGAUCAAUUUAATT against Olfr568,inactive: 2.14
5,GCACGACGAGACAUUUUUGTT against 0610038D11Rik,inactive: 0.79
6,CGGGAAGCUUUCCUAAACUTT against Serpinb9d,inactive: -1.09
7,UAAGUGUUGUCUUCCUUUUTT against Olfr1360,inactive: -0.809
8,GGGUUUGACCUGAUUUCUCTT against Col9a1,inactive: 0.699
9,GAUUUUUCAAAUCUUUGGCTT against Plac8,inactive: 0.557
10,GGAACUAGAACCAGAGUCCTT against Mrpl54,inactive: 0.631
11,GGUGAUGGAAGAAAAUACCTT against Pcdhb22,inactive: 1.63
12,GGGCUCUAAAAAGGAUUUUTT against A330064G03Rik,inactive: -2.19
13,GGUCUUACAGUGGAGAGCATT against 9630044M06,inactive: 0.883
14,GGCCGAUGAUAAAAAUGAATT against Cnga1,inactive: -0.469
15,GGAAUCAUCGGUUCUGUGUTT against Cldn16,inactive: -2.11
16,GGCAGAUGUCAUCAAUGCUTT against Sas,inactive: 0.555
17,GGAAGAUGAUUUCUCCUUCTT against 2900026A02Rik,inactive: -0.106
18,GCUGUACGUGCUUGGUUAGTT against Isl1,inactive: 0.371
19,GGCCAUCUUCCUGUUUGUGTT against Gabarapl2,inactive: 1.15
20,CCAAUAGCUAGUCUCCUAGTT against 6430701C03Rik,inactive: 2.43
21,CGUAGUUUUACAGAUCACUTT against Odz3,inactive: -0.666
22,GGACUAUGCCAAUGUCAGATT against 1700065O13Rik,inactive: 0.259
23,GGUGGCACAUAAGAAAUCCTT against Kiaa0298-hp,inactive: 2.01
24,GGUCAGUUCCUAGCUUCACTT against Gucy1b2,inactive: 0.744
25,GCUCUAAUCAAUCAGUUAATT against Lnpep,inactive: 0.126
26,CGGCAUUUGCUAAUGGUCGTT against Actl6a,inactive: 1.53

row,Sequence,z-score
1,GGAUCCCAGAUUGAAAACUTT against Rnf5,inactive: 1.17
2,GUCCCAAGAGGCUCAUUCUTT against 2300006N05Rik,inactive: -0.814
3,GGUGUUGGAAACAAUCAGATT against Cd59a,inactive: 0.22
4,GGAUAUGUUGCUCACAUAATT against 9830132L24,inactive: -0.216
5,GGAAAAGAUGAAGACUACATT against Ifnar2,inactive: -1.47
6,GACUCUGCUUUUUGUGUUATT against Olfr958,inactive: 1.71
7,GCGGGAACCAUUUUUGUGATT against Cdh11,inactive: -0.345
8,GGAAGAUCCCAACAGUUUGTT against Prss11,inactive: -0.102
9,GGCAGGAAGGACAAUCAGUTT against D130067I03Rik,inactive: 0.694
10,GGACUGAAAGAAAUCAGAATT against Asxl2,inactive: 0.959
11,GGACUUCAACAACUGCUCUTT against Rpo1-4,inactive: -1.89
12,GGGCAACUUCCUCAGACAUTT against Cav2,inactive: -1.35
13,GGCCCUAAUUUCAGUAAUATT against D430024F16Rik,inactive: -1.32
14,GGGAAACAAGCAUCUUCUGTT against Bmp5,inactive: -1.18
15,GGAAUAAAGUGUUGUGUCATT against 9230106L14Rik,inactive: 0.506
16,GGCUAAGAUUCAGGUCUUUTT against Crygs,inactive: 0.262
17,GGUAAAAUGGAACUACAUGTT against Igf2bp3,inactive: 0.173
18,GGAUGAUGUUCCCAUGCAATT against BC006933,inactive: -2.31
19,GGAUAACAGCACUUUCCAGTT against 2700062C07Rik,inactive: -0.372
20,GAAGCUCAUAGUGACUGUCTT against V1rc8,inactive: -1.95
21,CCGUUACCUUUUAAGCCUGTT against Socs6,inactive: -1.01
22,GGCCUUAGAUAGUUACAUATT against LOC209380,inactive: -0.061
23,GGAAAACACGUUCACUAUATT against Statip1,inactive: -0.794
24,GGUAUGAUUGAAUUUCGUGTT against Purg,inactive: -0.553
25,GCCACCUCUUAUGAGGCUUTT against D630045E04Rik,inactive: -1.04
26,GCUCUCUCCUGCGCUAAAUTT against Camta2,inactive: 4.41

# Looked up above.
# z-score with GGUAAAAUGGAACUACAUGTT against Igf2bp3 reads inactive: 0.173
# z-score with GGUCUUACAGUGGAGAGCATT against 9630044M06 reads inactive: 0.883
# z-score with GAAGCUCAUAGUGACUGUCTT against V1rc8 reads inactive: -1.95

# Further results.

row,Sequence,z-score
1,CCAUUUAACCUGAUUCUGUTT against Cntn1,inactive: 0.367
2,GGACAACUAUGAAUUAGUGTT against Pfkp,inactive: -0.587
3,CCUUAUGUGCACUAUAGCCTT against 1700028K03Rik,inactive: 1.4
4,GGAUUGAGCAGUGUCUAGUTT against Otos,inactive: -0.622
5,GGUAGAACUGGAGUAUUCUTT against Arhgap4,inactive: 1.22
6,GGUCUCAAAUGAAACAAACTT against Upk3b,inactive: -0.362
7,CGAGACACACCUAAAUAUGTT against Nol5,inactive: 0.582
8,GCCCUCAUUUGUCCUACAUTT against Arhgef2,inactive: 0.0228
9,CCUCAAGAGAGCUACCGCATT against 1700018C11Rik,inactive: 0.313
10,GGCUUUUGUCAAGCAGCACTT against Ins2,inactive: -0.405
11,GGCUCUGCUGAAUAACCUGTT against Gcnt3,inactive: 0.208
12,GCAAGCAGAUCUGAUAUCATT against 2700050F09Rik,active: 4.76
13,CGACCAAUGGGACAAUGCATT against Prss12,inactive: 0.977
14,GGUUACAGCACUGAUUGUUTT against 2510006C20Rik,inactive: -1.97
15,GCUAUUUCAGGCACAAUAATT against Srprb,inactive: 0.681
16,GCAGUCAUGAGAAAUACUATT against Irak1,inactive: -1.12
17,GGGAAUACAUUUUAUCUUCTT against Cpox,inactive: -0.0687
18,GGCAAUGCUGUCCUACUAUTT against Map2k5,inactive: 0.181
19,GGACUGAAGUGAAAUAAAUTT against B230359F08Rik,inactive: 0.692
20,CCAUCCUUGUUUUGUUAAUTT against Tnfrsf6,inactive: 2.28
21,GGCUGUUGUCAAUCCAGUUTT against Krtap5-4,inactive: 0.595
22,CCACUAUGGCGACCAGAUUTT against Mfap2,inactive: -3.19
23,GGGAACAAUCAAAAUUGGATT against Mta3,inactive: 0.215
24,GGCUUUCUCCCAGCAAUAGTT against Scrt1,inactive: -0.609
25,GGAAUUCAUUGAGUCUUGUTT against Kcnip2,inactive: 1.9
26,GGUUUGAAGAUGAUGCCUCTT against Nfkbil1,inactive: 0.415

row,Sequence,z-score
1,CGACAGCAAAGUGGUUAAGTT against Upk2,inactive: -0.556
2,GCAGUUACACAUUUGAACATT against BC024479,inactive: -0.253
3,GGUCAUCGCUCAGUUAGAATT against 9630041N07,inactive: -1.04
4,GGUCAUCAUGAGCCCAUGUTT against Olfr1341,inactive: 0.0536
5,GGAGACUGUGAUUGAGAUGTT against 2500002L14Rik,inactive: 0.168
6,GGGUGCUACAAAAUUUGGATT against Arfgap1,inactive: 1.28
7,GGUUGUAGGAGAGGUAGAGTT against Sh3kbp1,inactive: 1.81
8,GGGCUUUCUUGGUUUUAUCTT against 8430408G22Rik,inactive: 1.33
9,GCUCUGUUAAGGAAGAACATT against Safb2,inactive: -0.406
10,GGUCGAAGUAUUGGAAAAUTT against Hesx1,inactive: 1.5
11,CCUACCUCACCGUAACUGUTT against Celsr1,inactive: -2.25
12,CCUGGAGUACAUAAAAGAUTT against Sh2d1a,inactive: -0.524
13,CCGGGCAAUUCAGCUGAACTT against Igsf3,inactive: 0.0966
14,GCUCUUAAGAGUCACCAAGTT against Wbscr27,inactive: -0.546
15,GUACUUUCCGCUGUUCCUCTT against Ltc4s,inactive: -0.00675
16,CCCACAGUGCAAAAAUGACTT against Olfr663,inactive: 0.145
17,GGAAGACUGGGAAUAUAUCTT against Gga3,inactive: -2.8
18,GGUCCACUGAUUCUGAUAATT against BC013476,inactive: -0.156
19,GCCUCGUGUUGAAUCUUAATT against Pmp22,inactive: -0.632
20,CGAUCAUCGGCAUGUAUACTT against LOC333669,inactive: 0.0787
21,CCACAAGGUUCACAGAAAUTT against 2810048G17Rik,inactive: 0.787
22,GGGUAGCUAAGAAAAAGAUTT against C030048B08Rik,inactive: -0.549
23,CCUCAUUGUACAAGUAUCUTT against Hnt,inactive: -1.42
24,GGUCUUGGUGUAUAACAACTT against Rpo1-1,inactive: -1.22
25,CCUUUGUUACCACCACCAUTT against Olfr1331,inactive: 0.203
